Measurements from PubChem BioAssay AID504467 (National Center for Advancing Translational Sciences (NCATS), 2011).
In all, about 330,000 compounds went through this assay and about 7,700 (2.3%) were called active. Inconclusive means that the source gave no clear call. Such entries were picked first, then a sample of the others. Calls follow the shape of the dose curve; as a rule, active = well fitted inhibition curve with a large enough effect; inconclusive = small, poorly fitted or top-dose-only effect, or effect the other way; inactive = flat fitted curve, though single readings scatter. Potencies beside an inconclusive call are fits to weak or partial responses and may not hold up.

Assay: qHTS screen for small molecules that inhibit ELG1-dependent DNA repair in human embryonic kidney (HEK293T) cells expressing luciferase-tagged ELG1; also: nearly all actives have a fitted effect of over 55% in size
Conditions: HEK293T ELG1-luciferase reporter, luminescence, 16 h, DNA damage induced by 5-fluorouridine; activity change, negative = inhibition: at 46.1 µM (top of the series)
Outline: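 Step one: seed 2,000 cells per well. Step two: pin-transfer compound or DMSO alongside 5-fluorouridine. Step three: incubate 16 hr, 37 °C, 5% CO2. Step four: add ONE-Glo, wait 30 min, read luminescence.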
% is scaled to controls: 0 for no effect and ±100 for the full control effect; potency is read from the fitted curve at half-maximal effect.

Q: With `CCC(C(=O)NC1CCCC1)N(C(=O)Cn1nnc(-c2ccc(C)o2)n1)c1cccc(O)c1` (centres undefined) as the molecule, how does the Potency read?
A: The Potency was inconclusive: 29.1 µM [inhibitor, single point].

Q: With `CC(=O)c1ccc(N2CCN(C(=S)Nc3ccccc3F)CC2)cc1` as the molecule, how does the “activity change, negative = inhibition” value read?
A: Its value is inactive: 5.66%.

Q: For `O=C(O)CCCC(=O)Nc1cccc(-c2nc3ccccc3[nH]2)c1`, which “activity change, negative = inhibition” value is on record?
A: The value was inactive: 0.098%.

Q: With `COCCNCCCOc1ccc(Cl)cc1Br` as the molecule, how does the Potency read?
A: Its Potency is inconclusive: 1.16 µM [activator, single point].

Q: With `COc1ccc(NS(=O)(=O)c2ccc(O)c(C(=O)OCC(=O)Nc3ccc4c(c3)OCCO4)c2)cc1` as the molecule, how does the Potency read?
A: Its Potency is inconclusive: 16.4 µM [inhibitor, partial curve, poor fit].

Q: Which Potency does the source give for `COC(=O)c1cccc(NC(=O)Cc2nc(-c3ccccc3)sc2-c2ccc(C)cc2)c1` here?
A: Its Potency is inconclusive: 18.4 µM [inhibitor, single point].

Q: With `CCCCN(CC)S(=O)(=O)c1ccc(C(=O)N=c2sc3cc(NC(C)=O)ccc3n2C)cc1` as the molecule, how does the Potency read?
A: The Potency was inconclusive: 20.6 µM [activator, partial curve].

Q: Which “activity change, negative = inhibition” value does the source give for `CCN(C(=O)CN1C(=O)NC2(CCCc3ccccc32)C1=O)c1ccc(F)cc1` (centres undefined) here?
A: Its value is inactive: -0.874%.

Q: Which Potency does the source give for `COc1cccc(CNC(=O)c2cc(C3CC3)nc3c2cnn3C(C)C)c1` here?
A: The Potency was inconclusive: 29.1 µM [inhibitor, single point].

Q: Which Potency does the source give for `CN(CC1COc2ccccc2O1)C(=S)NC1CCCCC1` (centres undefined) here?
A: The Potency was inconclusive: 20.6 µM [inhibitor, single point].

Q: With `CC(C)c1ccc(NC(=O)C2CCN(c3ncnc4c3nc3n4CCCCC3)CC2)cc1` as the molecule, how does the Potency read?
A: Its Potency is inconclusive: 5.17 µM [inhibitor, partial curve].

Q: Which Potency does the source give for `O=[N+]([O-])c1ccc(Cl)c(S(=O)(=O)Nc2cccc(-c3ccc(N4CCOCC4)nn3)c2)c1` here?
A: The Potency was inconclusive: 6.51 µM [activator, partial curve].

Q: With `Nc1ncc(Br)cc1S(=O)(=O)NCCC(=O)NCCc1ccccc1` as the molecule, how does the “activity change, negative = inhibition” value read?
A: The value was inactive: 10.4%.

Q: Which Potency does the source give for `CCOC(=O)c1sc(NC(=O)c2ccccc2)cc1C` here?
A: The Potency was inconclusive: 1.3 µM [activator, full curve].

Q: For `CCOCCc1nnc(NC(=O)c2cccs2)s1`, which Potency is on record?
A: The Potency was inconclusive: 16.4 µM [activator, partial curve, poor fit].

Q: Which Potency does the source give for `CCOC(=O)c1csc(NC(=O)C2=COCCO2)n1` here?
A: Its Potency is inconclusive: 14.6 µM [activator, partial curve].

Q: With `O=C(CSc1nnc(SCc2cccc3ccccc23)s1)c1ccc2c(c1)OCO2` as the molecule, how does the “activity change, negative = inhibition” value read?
A: The value was inactive: -0.978%.

Q: For `O=C(CSc1nnc(CNC(=O)c2ccccc2)o1)Nc1nccs1`, which Potency is on record?
A: The Potency was inconclusive: 1.46 µM [inhibitor, partial curve, poor fit].

Q: With `CC1CCN(C(=S)Nc2ccc3nc4n(c(=O)c3c2)CCCCC4)CC1` as the molecule, how does the “activity change, negative = inhibition” value read?
A: Its value is inactive: -17.9%.

Q: With `COc1ccc(NC2=C(NCCO)C(=O)c3ccccc3C2=O)cc1` as the molecule, how does the Potency read?
A: Its Potency is inconclusive: 29.1 µM [inhibitor, single point].

Q: Which Potency does the source give for `COc1ccc(-c2ncc(CN3CCN(CCC(C)C)C(CCO)C3)cn2)cc1` (centres undefined) here?
A: Its Potency is inconclusive: 29.1 µM [activator, single point].

Q: For `CCOC(=O)c1c(C=O)c(C)n(Cc2ccc(Cl)cc2)c1C`, which Potency is on record?
A: Its Potency is inconclusive: 16.4 µM [inhibitor, partial curve, poor fit].

Q: For `CC(=O)c1cc(OC(=O)c2ccncc2)ccc1OC(=O)c1ccncc1`, which Potency is on record?
A: Its Potency is inconclusive: 29.1 µM [inhibitor, single point].

Q: Which Potency does the source give for `Cc1nc(SCC(N)=O)[nH]c(=O)c1CCC(C)C` here?
A: The Potency was inconclusive: 18.4 µM [activator, partial curve, poor fit].

Q: With `CCOc1ccc(-c2nc(-c3ccccc3C)no2)cc1` as the molecule, how does the Potency read?
A: Its Potency is inconclusive: 2.59 µM [activator, partial curve].

Q: Which Potency does the source give for `CN(Cc1ccccc1)S(=O)(=O)c1ccc(OCC(=O)NCc2ccncc2)cc1` here?
A: The Potency was inconclusive: 29.1 µM [inhibitor, single point].

Q: For `COc1cccc(OC)c1C(=O)OCCCOC(=O)c1c(OC)cccc1OC`, which Potency is on record?
A: The Potency was active: 20.6 µM.

Q: With `Cc1cccc(N=Nc2c(O)[nH]c3ccc(Br)cc23)c1` as the molecule, how does the Potency read?
A: Its Potency is inconclusive: 20.6 µM [activator, single point].

Q: Which Potency does the source give for `COc1ccc(/C=N/NC(=O)c2cc(C34CC5CC(CC(C5)C3)C4)[nH]n2)cc1O` here?
A: Its Potency is inconclusive: 29.1 µM [activator, partial curve, poor fit].

Q: Which Potency does the source give for `N#C/C(=C\c1ccc(OCc2ccccc2)cc1)C(=O)Nc1nc2c(s1)CCN(Cc1ccccc1)C2` here?
A: Its Potency is inconclusive: 1.3 µM [activator, partial curve].

Q: Which Potency does the source give for `O=C(Nc1ccccc1C(=O)O)c1ccc2ccccc2n1` here?
A: Its Potency is inconclusive: 23.1 µM [activator, partial curve].

Q: Which “activity change, negative = inhibition” value does the source give for `CCN(CC)S(=O)(=O)c1ccc(N2CCOCC2)c(NC(=O)c2ccc(OC)c([N+](=O)[O-])c2)c1` here?
A: The value was inactive: -10%.

Q: For `O=C(c1ccccc1)N(Cc1ccc(F)cc1)Cc1nc2ccccc2c(=O)[nH]1`, which “activity change, negative = inhibition” value is on record?
A: The value was inactive: -29.7%.

Q: For `c1ccc(COc2cccc(CNCc3ccccn3)c2)cc1`, which “activity change, negative = inhibition” value is on record?
A: The value was inactive: -14.6%.

Q: For `O=C(Nc1ccccc1)C1CC2CCC1C2` (centres undefined), which “activity change, negative = inhibition” value is on record?
A: Its value is inactive: 9.43%.

Q: For `Cc1ccc(NC(=O)CCC(=O)NNC(=O)c2ccccc2[N+](=O)[O-])c(C)c1`, which “activity change, negative = inhibition” value is on record?
A: Its value is inactive: -4.07%.

Q: Which “activity change, negative = inhibition” value does the source give for `COc1ccc(NC(=O)N(C)C[C@H]2Oc3ccc(NC(=O)C4CC4)cc3CC(=O)N([C@@H](C)CO)C[C@@H]2C)cc1` here?
A: Its value is inactive: 6.49%.

Q: For `COc1ccc(/C=C/c2c(-c3ccc(OC)cc3)sc3cc(OC)c(OC)cc23)cc1`, which “activity change, negative = inhibition” value is on record?
A: The value was inactive: -20.5%.

Q: For `CS(=O)(=O)Nc1cccc(-c2cn3c(n2)SCC3)c1`, which Potency is on record?
A: Its Potency is inconclusive: 13 µM [activator, partial curve, poor fit].

Q: With `Cc1cc(NC(=O)c2ccc(C)c([N+](=O)[O-])c2)no1` as the molecule, how does the Potency read?
A: Its Potency is inconclusive: 20.6 µM [activator, single point].

Q: With `CC(C)Cc1nc(N2CCN(C(=O)C(C)C)CC2)c(C#N)c2c1CCC2` as the molecule, how does the “activity change, negative = inhibition” value read?
A: The value was inactive: -9.51%.

Q: For `Cc1cccc(N2CCN(C(=O)c3cccc(N4C(=O)C5CC=CC(C)C5C4=O)c3)CC2)c1C` (centres undefined), which Potency is on record?
A: The Potency was active: 23.1 µM.

Q: With `Cc1cccc2nc(CSc3ccccc3C(=O)O)cn12` as the molecule, how does the Potency read?
A: Its Potency is inconclusive: 29.1 µM [activator, single point].

Q: Which Potency does the source give for `O=C(OCC(=O)N1CCCCCC1)c1ccc(Br)c(S(=O)(=O)N2CCOCC2)c1` here?
A: Its Potency is inconclusive: 29.1 µM [inhibitor, single point].
